The assay has as its target FLAG-tagged non-farnesylable prelamin A (LA-C661M) (UniProt P02545). Description: co-IP; transfected HEK293 cells, 700 ug lysate in high detergent IP buffer (50 mM TRIS-HCl pH 8, 250 mM NaCl, 0.1% SDS, 1% NP-40) incubated overnight with anti-FLAG, protein A/G, western blot for endogenous HDAC2.

Chains of the proteins cited; added tags and fusions are not shown. Lines headed by an entry give the natural chain unless they say otherwise; changes in a name come on top.
UniProt P02545: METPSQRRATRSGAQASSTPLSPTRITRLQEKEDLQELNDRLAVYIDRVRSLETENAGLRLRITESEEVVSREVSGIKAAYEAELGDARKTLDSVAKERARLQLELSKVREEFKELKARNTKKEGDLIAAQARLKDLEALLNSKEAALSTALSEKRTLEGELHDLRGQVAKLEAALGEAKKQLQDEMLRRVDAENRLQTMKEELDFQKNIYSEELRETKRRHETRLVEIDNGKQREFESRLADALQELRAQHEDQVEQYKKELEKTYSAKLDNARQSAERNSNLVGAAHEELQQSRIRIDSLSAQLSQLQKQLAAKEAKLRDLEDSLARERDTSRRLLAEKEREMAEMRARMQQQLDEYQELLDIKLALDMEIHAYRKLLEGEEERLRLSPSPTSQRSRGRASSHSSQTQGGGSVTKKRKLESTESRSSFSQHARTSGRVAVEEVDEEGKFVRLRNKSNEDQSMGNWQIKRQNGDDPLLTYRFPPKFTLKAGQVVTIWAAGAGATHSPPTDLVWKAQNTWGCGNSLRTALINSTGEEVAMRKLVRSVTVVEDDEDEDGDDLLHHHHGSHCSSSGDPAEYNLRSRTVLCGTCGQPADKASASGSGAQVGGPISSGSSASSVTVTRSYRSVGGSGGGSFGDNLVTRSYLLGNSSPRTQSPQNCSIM
UniProt Q92769: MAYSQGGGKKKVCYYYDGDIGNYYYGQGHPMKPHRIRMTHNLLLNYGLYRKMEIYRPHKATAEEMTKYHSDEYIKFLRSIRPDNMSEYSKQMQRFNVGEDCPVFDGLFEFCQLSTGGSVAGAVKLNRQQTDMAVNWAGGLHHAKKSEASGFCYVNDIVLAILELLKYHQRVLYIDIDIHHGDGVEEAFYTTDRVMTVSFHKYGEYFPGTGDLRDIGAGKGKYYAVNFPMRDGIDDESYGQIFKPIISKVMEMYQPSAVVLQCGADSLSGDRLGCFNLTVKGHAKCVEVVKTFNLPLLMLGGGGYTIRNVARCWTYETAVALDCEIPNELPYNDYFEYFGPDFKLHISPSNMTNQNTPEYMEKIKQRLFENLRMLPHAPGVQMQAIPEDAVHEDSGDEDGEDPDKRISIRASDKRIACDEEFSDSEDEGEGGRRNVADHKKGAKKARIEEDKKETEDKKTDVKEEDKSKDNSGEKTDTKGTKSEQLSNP

Results are given in words; binding and its absence hold for the method and conditions named. Binding seen in cells or lysates may run through a third protein. Binding can be weak; no strength is given.

On to “histone deacetylase 2 (HDAC2) (from UniProt Q92769 1-488) (enzyme)”, for which the binding entry is “binds weakly”.
